This assay concerns Salmonella enterica serovar Typhimurium SL1344. Put plainly: bacterial growth OD600 after 18 h with compound and polymyxin B; higher = more bacterial growth (less inhibition). The following applies: 50 µM, Mueller-Hinton broth.

The values below come from the supplement of paper PMC12889115.

The list shows a part of the results. These are raw signals, not scaled to a control.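 Primary screen: polymyxin B was added at a level permeabilizing Salmonella outer membranes while sparing inner membranes. DMSO wells, both with and without polymyxin B, established maximum growth. Plate-to-plate variation meant each plate was ranked on its own, and the lowest-OD600 compounds were selected as hits.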

`COc1ccc(-c2nn(-c3ccccc3)cc2CN2CCCCC2CO)c(F)c1` (stereo not given): the “bacterial growth OD600” value (polymyxin B 1 µg/mL) worked out at 0.935. On to `COC(=O)c1cc(CNC(=O)C23CC4CC(CC(C4)C2)C3)cc(NC(=O)Cc2ccsc2)c1`, for which, where the note is “polymyxin B 0.75 µg/mL”, the “bacterial growth OD600” value amounted to 0.022. `CCc1csc(CNC(=O)C2CCC(=O)N(Cc3cccc(OC)c3)C2)n1` (stereo not given): the “bacterial growth OD600” value (polymyxin B 1 µg/mL) stood at 0.873. For `COCc1ccc(C(=O)NCc2c(C)ncc3c2CCN(C(=O)c2cccc(OC)c2OC)C3)o1`, the “bacterial growth OD600” value (polymyxin B 0.75 µg/mL) came to 0.801. Turning to `O=C(NCc1cccnc1)C1CCN(C2CCN(CC3CC3)CC2)CC1`, the “bacterial growth OD600” value (polymyxin B 1 µg/mL) stood at 1.03.

Consider `NC(=O)c1cccnc1N1CCC2(CCCN(CCC3CCCCC3)C2=O)C1` (stereo not given), for which, for the setting “polymyxin B 1 µg/mL”, the “bacterial growth OD600” value is 1.14. Same read-out and setting: the result for `C=C(C)CNC(=O)Cc1c2c(n(Cc3ccccc3)c1C)CCCC2=O` reads 1.14. With `Cc1csc(SCC(=O)N2CCCC(c3nc(SCc4cccnc4)ncc3C)C2)n1` (stereo not given), under “polymyxin B 0.75 µg/mL”, the “bacterial growth OD600” value turned out to be 0.83. The same measure, in the same setting: to `COCc1ccc(CN2CCc3c(C(=O)NCc4ccccc4OC)c(OC)cc(=O)n3CC2)o1` belongs 0.822. In the case of `CC(C)S(=O)(=O)c1ncc(CN(C)Cc2cccnc2)n1CCc1ccccc1`, where the note is “polymyxin B 1 µg/mL”, the “bacterial growth OD600” value amounted to 0.657.

For the compound `O=C(Cn1cccn1)N1CCCC(N2CCN(Cc3ccc4c(c3)OCO4)CC2)C1` (stereo not given), the “bacterial growth OD600” value (polymyxin B 1 µg/mL) came out at 1.08. The same measure, in the same setting: to `COc1ccc(-c2noc(CN(C)Cc3cccc(C(F)(F)F)c3)n2)c(OC)c1OC` belongs 0.849. As for `CCN(CC)C1CCN(C(=O)c2cc(COc3ccc(-n4cncn4)cc3)on2)C1` (stereo not given), the “bacterial growth OD600” value (polymyxin B 1 µg/mL) is 0.886. Still for that read-out and setting: the result for `O=C(c1cccc(OC2CCN(C3CCCC3)CC2)c1)N1C[C@@H]2CCC[C@H]1C2` reads 1.21. Turning to `CC(NC(=O)c1ccc(N2CCC(NCCCN3CCCC3=O)CC2)cc1)c1ccccc1` (stereo not given), the “bacterial growth OD600” value (polymyxin B 0.75 µg/mL) stood at 0.858. `Cc1ccc(C(=O)N(Cc2ccc(OCc3ccc4c(c3)OCO4)cc2)CC2CCCO2)s1` (stereo not given): the “bacterial growth OD600” value (polymyxin B 0.75 µg/mL) was found to be 0.001. The same measure, in the same setting: to `COCc1ccc(C(=O)NCc2c(C)ncc3c2CCN(C(=O)c2cc(F)c(F)cc2F)C3)o1` belongs 0.854; to `Cc1nc(N2CCC(C(=O)N3CCNC(=O)C3c3cccc(F)c3)CC2)nc2ccc(C(C)C)cc12` (stereo not given), 0; to `O=C(c1ccccc1-c1ncc[nH]1)N1CCC2(CCCN(CC3CC3)C2)C1` (stereo not given), 0.841. The same measure, in the same setting: to `CCOC(=O)C1(CCOc2ccccc2)CCN(Cc2cccc3nccnc23)CC1` belongs 0.681; to `COCCCN1C(=O)CC(CC(=O)N2CCCC(c3ccccc3C)C2)(c2ccccc2Cl)C1=O` (stereo not given), -0.043.

On to `O=C(CCC1(Cc2ccc(Cl)cc2)CCC(=O)N1)NCc1ccc(C(F)(F)F)cc1` (stereo not given), for which the “bacterial growth OD600” value (polymyxin B 0.75 µg/mL) amounted to 0.002. Consider `CCOC(=O)C1(Cc2ccccc2C(F)(F)F)CCN(Cc2cnn(C(C)C)c2)CC1`, for which the “bacterial growth OD600” value (polymyxin B 1 µg/mL) was found to be 0.857. In the case of `CN(Cc1nc2ccccc2s1)C(=O)CCC1(Cc2ccc(F)cc2)CCC(=O)N1` (stereo not given), the “bacterial growth OD600” value (polymyxin B 0.75 µg/mL) stood at 0.796. As to `CC(CNC(=O)c1coc(CN2CCN(c3ncccn3)CC2)n1)c1ccccc1` (stereo not given), the “bacterial growth OD600” value (polymyxin B 1 µg/mL) stood at 0.864. For `CCC1CN(CC(=O)NCc2scnc2-c2ccccc2)Cc2cc(OC)ccc2O1` (stereo not given), the “bacterial growth OD600” value (polymyxin B 0.75 µg/mL) came out at 0.794. Consider `CCOC(=O)C1(CCCc2ccccc2)CCCN(C(=O)CCc2cn[nH]c2)C1` (stereo not given), for which the “bacterial growth OD600” value (polymyxin B 1 µg/mL) is 0.832.

Regarding `O=C(NC1CCCc2nc(N3CCC(CO)CC3)ncc21)c1cccs1` (stereo not given), for the setting “polymyxin B 0.75 µg/mL”, the “bacterial growth OD600” value stood at 0.811. On to `Cc1ccccc1OCC1CCCN(Cc2nc(Cc3ccccc3)no2)C1` (stereo not given), for which, for the setting “polymyxin B 1 µg/mL”, the “bacterial growth OD600” value was found to be 0.807. Same read-out and setting: the result for `CSCCC(=O)N1CCC2(CCCN(Cc3cccc(F)c3F)C2=O)C1` (stereo not given) reads 0.976.
